Laboratory results taken from PubChem BioAssay AID2685 (National Center for Advancing Translational Sciences (NCATS), 2010).
Out of some 320,000 compounds screened, about 2,100 (0.66%) were called active. The inconclusive results got no clear call from the source; some entries with a clear call stand among them for comparison. The call rests on the fitted dose curve; in most records, active means well fitted inhibition curve with a large enough effect in the signal ratio, with a control signal flat (not every such curve was filed as active); inconclusive means small, poorly fitted or top-dose-only effect, or effect the other way, or a change in a side signal; inactive means flat fitted curve, though single readings scatter; the % refers to the signal ratio. Where the call is inconclusive, the potency comes from a doubtful curve fit.

Assay: qHTS Assay for Lipid Storage Modulators in Drosophila S3 Cells
Details: BODIPY lipid droplet fluorescence, 18-24 h, cells fed with added oleic acid; lipid storage change, negative = inhibition: at 46.1 µM (top of the series) unless noted
Procedure, shortened: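 Drosophila S3 cells got compounds at several concentrations plus oleic acid (400 uM solution). Laser-scanning cytometry with 488 nm excitation read lipid droplets at 500-530 nm and cells at 575-640 nm. Percent activity was relative to 20 uM Triacsin C.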
On the % scale 0 is the no-effect control and ±100 the full control effect; potency means the concentration at half of the fitted maximal effect.

SMILES | lipid storage change, negative = inhibition | Potency
CC(=O)c1cccc(NC(=O)c2c(F)c(F)c(F)c(F)c2F)c1 | inconclusive: -14.6% | 
Cc1ccc(C)c(NC(=O)CCn2nc(C)cc2C)c1 | inconclusive: 28.1% | 
Cc1ccc(NC(=O)CSc2ccccc2NC(=O)c2ccccc2)cc1Cl |  | active: 20.6 µM
Cc1cc(C)n(-c2c(F)c(F)c(CN3CCCCC3)c(F)c2F)n1 | inconclusive: 44.8% | 
CCOC(=O)C1CCCN(C(=O)c2cccc(S(=O)(=O)N(C)c3ccc(C)cc3)c2)C1 (stereo not drawn) |  | inconclusive: 6.51 µM [falling, full curve, poor fit]
CCCCN(CC)CCCNC(=O)CS(=O)(=O)Cc1nc(-c2cccc(OC)c2)oc1C | inconclusive: 35.4% | 
CC(C)c1ccc2oc(-c3cc(N)ccc3O)nc2c1 | inconclusive: 34.3% | 
CCOC(=O)c1sc(NC(=O)/C=C/c2cnn(C)c2C)c(C(=O)OCC)c1C | inconclusive: -0.318% | 
CN(Cc1c(F)cccc1Cl)C(=O)CNC(=O)c1cccs1 | inactive | 
CC(C)(C)C1CCc2[nH]c3ccccc3c(=O)c2C1 (stereo not drawn) | inconclusive: -4.82% | 
COc1cc(/C(C)=N/N2CCN(c3ccccc3OC)CC2)ccc1O | inconclusive: -2.25% | 
CCCN(Cc1cc2ccc(C)cc2[nH]c1=O)C(=O)c1cccnc1 |  | inconclusive: 0.0046 µM [activator, full curve, poor fit]
COCCN(CC(=O)Nc1cccc(C)c1C)C(=O)c1ccc2c(c1)OCO2 | inconclusive: -9.99% | 
CCOc1ccc(OCc2ccc(C(=O)N(C)c3ccccc3)o2)cc1 | inconclusive: 13.3% | 
O=C(CSc1nnc(CCc2nc3ccccc3[nH]2)n1-c1ccccc1)NCc1ccco1 | inconclusive: -60.6% | 
CC(N=c1ccccn1C(=O)Nc1cccc(C(F)(F)F)c1)c1ccco1 (stereo not drawn) |  | inconclusive: 1.46 µM [activator, partial curve]
COC(=O)c1cc(-c2c(-c3cc(OC)c(OC)c(OC)c3)noc2C)cc([N+](=O)[O-])c1 | inconclusive: 59.2% | 
O=C(N[C@@H](Cc1ccccc1)C(=O)N1CCC2(CC1)NCCc1[nH]cnc12)c1cccc(Br)c1 | inconclusive: 63.6% | 
CC1CN(C(=O)c2cc3cc(F)ccc3[nH]2)CC(C)O1 (stereo not drawn) | inconclusive: 41.1% | 

Copied from the results shown for reference:
SMILES | lipid storage change, negative = inhibition | Potency
CC(C)(C)C1CCc2[nH]c3ccccc3c(=O)c2C1 (stereo not drawn) | inconclusive: -4.82% | 
COc1cc(/C(C)=N/N2CCN(c3ccccc3OC)CC2)ccc1O | inconclusive: -2.25% | 

Later entries.

SMILES | lipid storage change, negative = inhibition | Potency
O=C(c1ccccc1)N1CCN(S(=O)(=O)c2cccs2)CC1 | inconclusive: 52.1% | 
COc1ccc(CC(=O)NNC(=O)CN(C)S(=O)(=O)c2ccc(Cl)cc2)cc1OC |  | inconclusive: 0.731 µM [falling, partial curve, poor fit]
CCN1CCN(Cc2ccc(NC(=O)c3ccc(C)c(NC(=O)c4c[nH]c5cc(C(F)(F)F)ccc5c4=O)c3)cc2C(F)(F)F)CC1 |  | active: 10.3 µM
COCCCn1nnnc1SCC(=O)N1c2ccccc2CC1C (stereo not drawn) | inconclusive: 32.8% | 
Cc1cccc2nc(CSCc3ccco3)cn12 |  | inconclusive: 29.1 µM [rising, single point]
CCOC(=O)CSc1nc(C)cc(=O)[nH]1 | inconclusive: 10.8% | 
Cc1ccc(-n2c(SCC(=O)N3CCOCC3)nc(O)c(Cc3ccccc3)c2=O)cc1 | inconclusive: -10.7% | 
CCn1c(SCc2ccc(F)cc2)nc2ccccc2c1=O | inconclusive: 11.3% | 
Cc1ccccc1NC1=NC2(CCCC2)N=C(N)N1 |  | inconclusive: 0.0052 µM [falling, full curve, poor fit]
O=C(COC(=O)/C=C/c1cccc(Cl)c1)NC1CCCC1 |  | inconclusive: 7.31 µM [activator, partial curve]
O=C(NCc1ccncc1)Nc1ccccc1Cl |  | inconclusive: 20.6 µM [activator, single point]
Cc1ccc(CN2CCN(CC3CC4C=CC3C4)CC2)cc1 (stereo not drawn) | inconclusive: -2.15% | 
O=C(NCC(O)COc1ccc([N+](=O)[O-])cc1)c1ccccc1 (stereo not drawn) | inconclusive: 6.38% | 
CCO[C@H]1OC(C(N)=O)=C[C@@H](c2ccc(Br)cc2)[C@@H]1CCCO | inconclusive: -9.98% | 
Cc1cc2cc(C(c3nnnn3Cc3ccco3)N3CCc4ccccc4C3)c(=O)[nH]c2cc1C (stereo not drawn) |  | inconclusive: 14.6 µM [activator, partial curve]
CCOC(=O)Cn1c(C)cc(COC)c(C#N)c1=O | inconclusive: 3.71% | 
C=CCOc1c(Br)cc(/C=N/NC(N)=O)cc1OC |  | inconclusive: 0.82 µM [activator, full curve, poor fit]
Cc1ccc(-n2ncc3c2CC(C)(C)CC3NC(=O)c2ccncc2)cc1 (stereo not drawn) |  | inconclusive: 6.51 µM [activator, single point]
COc1ccc(CCn2c(-c3ccco3)nc3nc4ccccc4nc32)cc1 |  | inconclusive: 29.1 µM [cytotoxic, single point]
